In PubChem BioAssay AID1347426 (Functional Genomics Laboratory (NCATS/FGL), 2020) one finds median seed-adjusted z-score data, which are given here for 107 sequences.

The whole screen tested about 31,000 sequences, of which about 1,400 (4.5%) were called active.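 How the source made its calls: active means median seed-adjusted z-score above 1 or below -1; inactive means the rest.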 Some of the results follow.

The test is described as follows: Novel Modifiers of Survival Motor Neuron (SMN) Protein: Gene Identification via Genome-wide siRNA Screen.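 Further: luminescence tracks full-length SMN protein made from the SMN2 reporter.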 The settings on record: HEK293T SMN2-luciferase reporter, siRNA knockdown, 72 h; actives lie on both sides. The essentials: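 Steps: spot 1 pmol siRNA, add Lipofectamine RNAiMax in serum-free DMEM, seed HEK293T SMN2–luciferase reporter cells; incubate 72 h at 37 °C; add ONE-Glo; normalize luminescence to control siRNA, log10, MAD. Candidates: |MAD| > 1.0.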
A general note: A reporter such as luciferase makes a cellular process visible.
For the sequence GCUGCAACGUGUGCGAGUUTT against ZNF319, the median seed-adjusted z-score is inactive: 0.256. To CACCAGACAUCAAAAUCAATT against ATF7 belongs inactive: 0.903; to GCAGGUGCAUGGUCUUCAATT against NR5A1, inactive: -0.467; to GAACCAUUCCUUAUCCCAUTT against SLC19A3, inactive: -0.0232.

Take GGAUCGUGCAGGUCCUAAATT against VAC14: the median seed-adjusted z-score is inactive: 0.0825. To CAGGUAUGGUGAACCGUGATT against YES1 belongs inactive: -0.508; to GGCAUAUUUUGUAACGGGATT against GLP2R, inactive: 0.492; to GUAUCGAAUUUACGGAUUATT against RNF139, inactive: 0.175. As for CACUCACCCUCCAGACAAATT against TAL2, the median seed-adjusted z-score is inactive: -0.395. To GAUGAUCAGCUAUGAAAAATT against ZNF780A belongs inactive: 0.298; to GCAAGGCAGCUGUUCUGAATT against PGLS, inactive: 0.188; to GAAAAACUCCAACCAGAUATT against CD4, inactive: -0.566. To GGAGACCACCUAAGUAUAATT against ZNF630 belongs inactive: -0.533; to AAGACAUUUUGAAUCUGGATT against NKX2-3, inactive: -0.2; to CGACCAAGAUUAUGGAAUUTT against ADAMTS17, inactive: 0.257. To GAAUAUUCGUGGGACUGAUTT against ANXA8L2 belongs inactive: -0.147. As for GAAAGACCUUUUAUAUGCATT against SP4, the median seed-adjusted z-score is inactive: -0.088. To GCAUAUCUCUCGACCACCUTT against NANOS2 belongs inactive: 0.565; to AGAAGACCAUUUGACCAUATT against MAFG, inactive: 0. GCUCAGGUCUCAUUCGACATT against ZNF193: the median seed-adjusted z-score is inactive: 0.276. For the sequence CUACCAUUGUAUACCUAGATT against LRRIQ1, the median seed-adjusted z-score was inactive: 0. To CGAGCUGCACGUUCCUAUATT against IRF7 belongs inactive: -0.304; to CAGUGAAGCGAAACAGUAATT against SNED1, inactive: 0.148.

Regarding CCCUGCUCGUCUAUACUUATT against SEMA5A, the median seed-adjusted z-score was inactive: -0.443. To CACAGGUUAUGAAACAGAATT against COQ6 belongs inactive: -0.0116. To GGAUGCUCCAAGUCUGUCATT against GPR179 belongs inactive: -0.513.

For the sequence GCAGGACCCAUUACGGCUATT against DPEP1, the median seed-adjusted z-score is inactive: -0.886.

Turning to CCUCUGGACUGAUGCAGCATT against NEDD9, the median seed-adjusted z-score was inactive: 0. To GUCUACGUGUGGAAUGUGATT against DMBX1 belongs inactive: -0.207. To GAAUUGUACCUAUAAGAAUTT against ITGB3 belongs inactive: 0.456; to GGCUCAUGCUCAACGAGAATT against PTGES2, inactive: -0.02. To GAAUGUAACUUCACAACCATT against ZHX2 belongs inactive: 0.0708; to CAGACUUGCUUAAUAGUAATT against ZFP1, inactive: 0.0391; to GGCUUAUGGGUGUUCGGAUTT against POLK, inactive: -0.102.

With CAACUGAACCACCCAAAUATT against NEK6, the median seed-adjusted z-score was inactive: -0.674. To CCAUGACCACAGACAUCUUTT against PLCB2 belongs inactive: 0.0845; to CCGAAAGUGUGACCUCUGATT against AGXT2L1, inactive: 0.285. GCCUCUUAAUUUACCAGAATT against OGN: the median seed-adjusted z-score was inactive: 0.0889. To GCAUCUCUUUGUAGCAUUUTT against MMD2 belongs inactive: -0.0908; to GGACCGUUUCAGUAUCAUUTT against ITIH5, inactive: -0.289; to CGGGAACUAUCCAAACAAUTT against DMBT1, inactive: -0.131.

For CAGAUAUACUGUGCCUUCATT against APEX1, the median seed-adjusted z-score was inactive: -0.312.

For CAGCUACUUUAAAGGACAATT against IBSP, the median seed-adjusted z-score is inactive: -0.111. As for CAACGUAGAUGGUGAUGGATT against FAM63B, the median seed-adjusted z-score was inactive: 0.111. GGACUACGAGAAAGACAAATT against PPM1L: the median seed-adjusted z-score was inactive: 0.4. To GGCUAUUCCGAAGCAUGUUTT against PAK6 belongs inactive: -0.57; to GAGUCUACCUAAUUCUGGATT against AURKA, inactive: -0.108. For the sequence GGUUAAAUCAUGUAGGAGATT against RARS, the median seed-adjusted z-score was inactive: -0.268. Take GAAGCUCCCAAGGACAUUATT against ATG7: the median seed-adjusted z-score is inactive: -0.328.

Take GCAUACGAUUUUAAGCGGATT against PTEN: the median seed-adjusted z-score is inactive: -0.408. Turning to UGCUACACGUCAGUGCUGATT against PGAM2, the median seed-adjusted z-score is inactive: -0.247. To CGAGGACAACACCCACUUUTT against ATP2A1 belongs inactive: -0.0384. To GGAUCGUAGUGAAACCGAUTT against DDX17 belongs inactive: 0.231; to GCAGUAAUAUUUAUCUCUUTT against SUCNR1, inactive: 0. To GAUACGUGCUUCAACAAAATT against NEK11 belongs inactive: 0.181; to CCCAGAAGAUUACCUUUGATT against NARG1L, inactive: 0.0121. For GCCUAGCAGCUGUUGGUUATT against ADHFE1, the median seed-adjusted z-score was inactive: 0.418. To GCCUUUGUCCUGUAUAACATT against LPHN3 belongs inactive: -0.0576; to GGAAUAUAAUGUUAACGAUTT against HLTF, inactive: -0.00902; to GCAACUUGGACUACAAGAATT against MYL2, inactive: -0.0369. To CAACGGUACUUGACCUCAATT against KCNJ1 belongs inactive: 0.0148; to GGAUUAUGAUUUUGAGGAATT against ZMAT2, inactive: 0.104; to GGAUCCUGGUGAUAAGAGATT against QRICH1, active: -1.04. Take GGACAGCGCGUUCUUUAAATT against TCF7L1: the median seed-adjusted z-score is inactive: -0.251. In the case of GGAGGAUUGUGCUCUGCAATT against FHOD1, the median seed-adjusted z-score is inactive: -0.114. To GGCUCAACAUACAUCAGAATT against ZNF350 belongs inactive: 0.133. To CAAUAUGCCCUGUUAGGAUTT against SLC22A15 belongs inactive: -0.137; to GAAGAGCUCCCGAGACAUATT against DDX28, inactive: -0.305; to CAUCGUUACAAGAUGCAUATT against UBR1, inactive: -0.775. To GCAGCGUAAUUACCACCAUTT against SLCO5A1 belongs inactive: 0.272. For ACUUGGUUUGCUCAACAAATT against MXI1, the median seed-adjusted z-score was inactive: 0.348. To GUGUCGAGCUUGCAACUGUTT against LAMC2 belongs inactive: -0.186; to CUCUGAACUUGGACCGCAATT against ZFYVE28, inactive: 0.0678. To GCCUUCGACUUUGAGUUUATT against VPS26B belongs inactive: -0.038; to GCCUCAACAUCAGGGUGGATT against ABCD1, inactive: 0.

As for GCUGUGAGAUUUACUCUGATT against ALAS1, the median seed-adjusted z-score is active: -1.15.

Regarding CGAGCGUAUCACCAUCUUUTT against NLGN2, the median seed-adjusted z-score is inactive: 0.204. To AGUUCAACCAGGUAGGGAATT against ZBTB17 belongs inactive: 0.0544. To GCUUCUCAUGGGAUCAAAATT against PGCP belongs inactive: 0.145; to GAAUCAUUAUAAGGAUCAATT against RAMP2, inactive: 0.289; to UGACGUAGGAAUAAACGGATT against PCDH11X, inactive: -0.203. To GGAUCAAUGUGACGGAGAATT against EMILIN2 belongs inactive: 0.726. Take GAGUAGUACCUGAUACAGATT against LAMC2: the median seed-adjusted z-score was inactive: -0.186. To CAGCUUUACGAGUAUGCAATT against HS6ST3 belongs inactive: -0.405; to GCAUCUUGUUGGACAUAUUTT against MTA1, inactive: 0.407. To CGAUGUACGUAUCAUCUCATT against RBM23 belongs inactive: 0.14; to GCUUCUGACAUAAAACGGATT against CCNG2, inactive: -0.764.

Turning to GAACGUGCGUUAUACCGCATT against DYNC1H1, the median seed-adjusted z-score was inactive: 0.

CUUCAUCUUCCGUAUCUUATT against PCTK1: the median seed-adjusted z-score is inactive: -0.729. As for CCUUAUAUGAAGAACCAGATT against MYCBP, the median seed-adjusted z-score was inactive: -0.196. To GGAUGUUCUUAGCACAUCATT against BLM belongs inactive: -0.0654. Consider CCUUACGAAUCAUAAGAUATT against ZNF708, for which the median seed-adjusted z-score is inactive: 0.0562. To GAGCACAAACGGAAACAAUTT against BCL11A belongs inactive: 0.297; to CCGUAGCACUCAUUAUUCUTT against SLC2A13, inactive: -0.0451. To CCAAGAUGCUCUUUACAAATT against GLRX2 belongs inactive: -0.244; to GAAGGAAUGAUUCGAUUUATT against WDHD1, inactive: -0.0501; to GGUACUCGGUGAUAAUUGATT against AOF1, inactive: -0.211. Regarding AGAGGAAUGUGAUUGUCAUTT against AKR1B10, the median seed-adjusted z-score is inactive: 0. As to CGACUGCGAGUGGACUAUATT against MRE11A, the median seed-adjusted z-score was inactive: 0.0507. To GCCUUUAAAUGGUCUUUAATT against ZNF141 belongs inactive: 0.223; to “GGAAGCGGCUGAUCUUUUATT against ST6GALNAC1”, inactive: -0.854. To CUGUUACCAUGGACUCGGATT against ACCN2 belongs inactive: -0.597.

Turning to GCUAUGACCUUGUCAUACATT against ZNF544, the median seed-adjusted z-score was inactive: -0.00739. Consider CUUCUGCGAUAGCAACUAATT against SLC12A1, for which the median seed-adjusted z-score is inactive: -0.406. To GGACUUGGAUUAUGAACUATT against COL6A3 belongs inactive: 0.341; to GGUAAUAGAUGGUCUGGAATT against PPIL3, inactive: 0.282.

For GUGGUGUGGUCAACGAAGATT against KCNIP1, the median seed-adjusted z-score is inactive: -0.0767.
